This is one part of the list. Further columns of the screen follow, without active or inactive calls. Most of these compounds were active or inconclusive in the main read-out, so they are no random draw. Potencies come from curve fits of mixed quality, noted in brackets.
Assay: qHTS Assay for Modulators of Lamin A Splicing
Conditions: HeLa LMNA splicing GFP/RFP minigene ratio, 48 h
Outline: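 Read-out is the ratio of GFP to DsRed2 object intensity, acquired by 488 nm laser-scanning cytometry on HeLa lamin A-EGFP minigene reporter cells. Compound incubation 48 hrs at 37 °C in Opti-MEM with 2% FBS; DMSO 0.5% final.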

[1] = measured here: GFP splicing reporter channel
[2] = measured here: RFP viability control channel

Row | Structure (SMILES) | AC50 [1] | AC50 [2]
1 | ClC1(Cl)CC1CSc1ncn[nH]1 (stereo not given) | 0.2 µM [rising, full curve, poor fit] | –
2 | Nc1c(CO)nnn1-c1ccccc1 | 35.5 µM [falling, single point] | –
3 | O=S(=O)(Cc1ccccc1)Nc1ccc(Br)cn1 | 0.00891 µM [rising, full curve] | –
4 | Cc1nc(-c2cccc(S(=O)(=O)N3CCC(C)CC3)c2)cs1 | 12.6 µM [rising, single point] | 17.8 µM [rising, single point]
5 | O=S(=O)(Nc1cccc(-c2ccc(N3CCCC3)nn2)c1)c1ccc(F)cc1F | 35.5 µM [falling, single point] | 3.98 µM [falling, partial curve, poor fit]
6 | COc1ccc(-c2cn3nc(N4CCCC(C(=O)NCc5ccccc5C)C4)sc3n2)cc1 (stereo not given) | – | 12.6 µM [falling, partial curve]
7 | CC(=O)c1c(C)[nH]c(C(=O)Nc2c(C)n(C)n(-c3ccccc3)c2=O)c1C | 0.631 µM [falling, full curve] | –
8 | COc1ccc(Cn2ccnc2SCC(=O)Nc2cc(C(F)(F)F)ccc2Cl)cc1 | 1 µM [rising, full curve, poor fit] | 15.8 µM [rising, partial curve, poor fit]
9 | COc1ccc(CN=C2NN=C(c3cccc(OC)c3)CS2)cc1 | 15.8 µM [falling, partial curve, poor fit] | –
10 | Cc1ccccc1-c1cc(Nc2ccccc2)ncn1 | 14.1 µM [falling, partial curve, poor fit] | –
11 | c1ccc(CSc2nnc3c(n2)OC(c2ccco2)Nc2ccccc2-3)cc1 (stereo not given) | 35.5 µM [rising, single point] | –
12 | O=C(/C=C/c1nc2ccccc2s1)N1CCCCCC1 | 2.51 µM [rising, partial curve, poor fit] | –
13 | Cc1[nH]n(-c2ccccc2)c(=O)c1/C=N/N1C(=O)c2ccc3c4c(ccc(c24)C1=O)CC3 | – | 35.5 µM [rising, single point]
14 | Cc1ccc(NC(=O)c2cc(S(=O)(=O)N3CCOCC3)c(Br)s2)cc1 | 12.6 µM [rising, single point] | 22.4 µM [rising, partial curve]
15 | Cc1cc(C(=O)NNCc2ccccc2)no1 | 2.24 µM [falling, single point] | 3.16 µM [falling, single point]
16 | O=C(O)C1CSC(c2coc3ccccc3c2=O)N1 (stereo not given) | – | 11.2 µM [rising, partial curve]
17 | O=C(NCc1cccs1)c1cnc2ccccn2c1=O | – | 0.00794 µM [falling, full curve]
18 | CC(C)Nc1ncnc2c1nnn2Cc1ccccc1 | 17.8 µM [rising, single point] | 17.8 µM [rising, single point]

Single records, as listed above. Values in the order: AC50 [1] | AC50 [2]
`O=S(=O)(Cc1ccccc1)Nc1ccc(Br)cn1` in the list: 0.00891 µM [rising, full curve] | –
`Cc1[nH]n(-c2ccccc2)c(=O)c1/C=N/N1C(=O)c2ccc3c4c(ccc(c24)C1=O)CC3` in the list: – | 35.5 µM [rising, single point]

Further structures.

Row | Structure (SMILES) | AC50 [1] | AC50 [2]
19 | Cc1ccc(/C=C/C(O)=C2/C(=O)N(C)C3(C)CC2c2ccccc2O3)cc1 (stereo not given) | 11.2 µM [falling, partial curve] | 25.1 µM [falling, single point]
20 | O=S(=O)(Cc1ccccc1)Cc1cnc(Cl)s1 | 17.8 µM [falling, partial curve, poor fit] | 0.141 µM [falling, partial curve, poor fit]
21 | O=c1[nH]sc2ccccc12 | 11.2 µM [falling, single point] | 11.2 µM [falling, partial curve]
22 | O=C1Nc2ccc(Cl)cc2C12Nc1ccccc1-c1nnc(SCc3ccccc3F)nc1O2 (stereo not given) | – | 35.5 µM [rising, single point]
23 | CCCCCOC(=O)Nc1ccc(S(=O)(=O)Nc2cccc([N+](=O)[O-])c2)cc1 | – | 14.1 µM [rising, partial curve]
24 | COc1ccccc1OCC(=O)NN=C(Cc1ccccc1)Cc1ccccc1 | 0.398 µM [falling, partial curve, poor fit] | 7.94 µM [rising, partial curve]
25 | Oc1ccc(/C=C/c2ccnc3ccccc23)cc1 | 7.94 µM [rising, partial curve] | 15.8 µM [rising, partial curve]
26 | COc1ccc(Oc2ncc3nc(-c4ccc(F)cc4)c(=O)n(C[C@H]4CCCO4)c3n2)cc1 | 11.2 µM [falling, partial curve] | –
27 | CC1=C(c2ccc(C)c(C)c2)S(=O)(=O)N=C1N1CCC(C(=O)Nc2cccc(F)c2)CC1 | 20 µM [falling, partial curve, poor fit] | 20 µM [falling, partial curve, poor fit]
28 | CN1CCN(C(=O)C23CCC(C)(c4nc5ccccc5nc42)C3(C)C)CC1 (stereo not given) | – | 3.98 µM [falling, single point]
29 | COc1ccc(C(=O)Nc2ncc3c(n2)CC(C)CC3=O)cc1 (stereo not given) | 0.0316 µM [falling, full curve, poor fit] | 0.0282 µM [falling, full curve, poor fit]
30 | Cc1cccc(-n2nnnc2SCc2csc(-c3ccccc3)n2)c1 | – | 35.5 µM [rising, single point]
31 | CC1=C/C(=N\N=C2\NC(=O)C(CC(=O)Nc3ccccc3F)S2)CC(C)(C)C1 (stereo not given) | 0.02 µM [falling, full curve, poor fit] | –
32 | Cc1cccc(OCC(=O)Nc2ccc(Cl)c(-c3nc4ccccc4[nH]3)c2)c1 | – | 35.5 µM [rising, single point]
33 | c1ccc2[nH]c(NCc3ccc4c(c3)OCO4)nc2c1 | 2.51 µM [falling, partial curve, poor fit] | 0.0708 µM [falling, full curve, poor fit]
34 | CC(=O)c1cc(C#N)c(NCc2cc(-c3ccccc3)no2)nc1C | 31.6 µM [falling, partial curve, poor fit] | 39.8 µM [falling, partial curve, poor fit]
35 | COc1ccc2ncc(S(=O)(=O)c3ccccc3)c(N3CCC4(CC3)OCCO4)c2c1 | – | 12.6 µM [rising, partial curve, poor fit]

Source: PubChem BioAssay AID1487 (National Center for Advancing Translational Sciences (NCATS), 2009)
